PMC7117731
No constants are given. Whether binding was seen depends on the method and setting. In cells and extracts the contact can be indirect. A result given as binding can be weak or reduced; the word gives no strength. Sequences can lack the tags named with a protein.

Target: flag-tagged Cspg4 (zebrafish chondroitin sulfate proteoglycan 4) (zebrafish)
Test: co-IP; HEK-293T cells co-transfected with Cspg4-FLAG and Wnt11-HA; lysis buffer 50 mM Tris HCl pH 7.4, 150 mM NaCl, 1 mM EDTA, 1% Triton X-100; Anti-FLAG M2 magnetic beads precipitate Cspg4-FLAG; blot with anti-HA

B1: HA-tagged Wnt11 (zebrafish) (ligand, UniProt O73864 24-354)
chain: ISWLGLTINGSSVGWNQTHHCKLLDGLVPDQQQLCKRNLELMHSIVRAARLTKSACTSSFSDMRWNWSSIESAPHFTPDLAKGTREAAFVVSLAAAVVSHAIARACASGDLPSCSCAAMPSEQAAPDFRWGGCGDNLRYYGLQMGSAFSDAPMRNRRSGPQDFRLMQLHNNAVGRQVLMDSLEMKCKCHGVSGSCSVKTCWKGLQDISTISADLKSKYLSATKVIPRQIGTRRQLVPREMEVRPVGENELVYLVSSPDYCTQNAKQGSLGTTDRQCNKTASGSESCGLMCCGRGYNAYTEVLVERCQCKYHWCCYVSCKTCKRTVERYVSK
  binding: binds
